# Test results taken from publication PMC7819943, “Rice protein-binding microarrays: a tool to detect cis-acting elements near promoter regions in rice”.
# The chains behind the UniProt entries cited, without tags or fusion partners.
# UniProt Q0JBA9, entry or part of it: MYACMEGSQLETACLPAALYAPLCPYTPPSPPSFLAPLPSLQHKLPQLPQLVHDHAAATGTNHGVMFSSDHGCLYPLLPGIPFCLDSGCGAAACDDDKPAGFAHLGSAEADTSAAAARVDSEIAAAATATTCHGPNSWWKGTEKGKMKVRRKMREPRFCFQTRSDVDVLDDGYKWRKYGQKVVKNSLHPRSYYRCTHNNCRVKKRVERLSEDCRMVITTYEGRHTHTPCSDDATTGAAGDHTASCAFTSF
# This is one part of the list.
# Molecular target: OsWRKY34 (Oryza sativa, UniProt Q0JBA9 1-250)
# Assay: protein-binding microarray (RPBM); PBS, 2% BSA, 51.3 ng/ul salmon testes DNA, 50 uM zinc acetate, 200 nM TF, 25 C, 1 h; high values mean tight binding
# Settings: protein: recombinant; tags: N-terminal polyhistidine and DsRed monomer fusion (pET32a); label: CyDye5-dUTP incorporated in the synthesized complementary strand; 3' TTTTT single-stranded linker to array surface; dsDNA, one strand shown
# Procedure, shortened: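 For the binding signal, per-feature fluorescence intensity was read in arbitrary units on an Axon 4000B scanner. Before scanning, a 2% BSA-blocked custom Agilent array made double-stranded with Cy5-dUTP was washed after 1 h at 25 °C with 200 nM protein and 50 µM zinc acetate. The proteins were Ni–NTA-purified transcription factors with N-terminal polyhistidine and DsRed fusions, expressed in E. coli BL21-CodonPlus.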
row,Sequence,binding signal
1,CGTTCCATTCCCGGCGTCGACCTCCGGCCGCTGTCACCGACGGAGTCACCTAGTGCAG,8280 fluorescence intensity (a.u.)
2,TAAAGTAAATGTTGATGGCTCTTATTGCGCATTCTCTGTTCGGAGTCACCTAGTGCAG,9540 fluorescence intensity (a.u.)
3,CTGCATCGTCGACATTTACTATTTCAGCTTTTACACTATTCGGAGTCACCTAGTGCAG,11200 fluorescence intensity (a.u.)
4,AATCACAACCATACACCACTCATTTCTACCTACTTTCTTACGGAGTCACCTAGTGCAG,10100 fluorescence intensity (a.u.)
5,CTATAGTGTGGACGTACGTTGACCACCCACATCGACGATGCGGAGTCACCTAGTGCAG,9000 fluorescence intensity (a.u.)
6,AGCCCTGTGGCAATTTGAGCATTTTTCCCGGAAGCAACGCCGGAGTCACCTAGTGCAG,8190 fluorescence intensity (a.u.)
7,TTCCGGGCACGCCGATCACGCACGCCGGCCGCGCCCGCCTCGGAGTCACCTAGTGCAG,9260 fluorescence intensity (a.u.)
8,GTCGCCCGCGCCGGCGCCCGCGCCGGCCACCCTATCCGCCCGGAGTCACCTAGTGCAG,8500 fluorescence intensity (a.u.)
9,CGTCGGCCCTTGTATTTTTGCAAAAAGGCCCTTTATTTTACGGAGTCACCTAGTGCAG,9220 fluorescence intensity (a.u.)
10,GCGGCGATCGATTTGTATATCAATATATGCTGTTCTTGTGCGGAGTCACCTAGTGCAG,8380 fluorescence intensity (a.u.)
11,CATATTTGTTGGATTATAAACATACGTTTCCTGTGATTCACGGAGTCACCTAGTGCAG,8990 fluorescence intensity (a.u.)
12,GCTATTCAAACCGTCGTGAGGCCTTATTTGCACTGATTTTCGGAGTCACCTAGTGCAG,12800 fluorescence intensity (a.u.)
13,CGCCGCTCACCTGCCAACCCACTCGACCGCGCGCCGCCGGCGGAGTCACCTAGTGCAG,10900 fluorescence intensity (a.u.)
14,GGTCAAATTCTCATTTTGCAATATCCCACAGCTAATTACACGGAGTCACCTAGTGCAG,9540 fluorescence intensity (a.u.)
15,GTCTTGGGCTTTTGGTGTCATGTTTTTCCTATTTTGCTAGCGGAGTCACCTAGTGCAG,8430 fluorescence intensity (a.u.)
16,TGGTGGATGCCCTGGAGGTTTGGGTTGAGATGGGAGTAGACGGAGTCACCTAGTGCAG,9770 fluorescence intensity (a.u.)
17,GTTACTGATCACACTACTTGTACTTTCCGCAAGTCATGCACGGAGTCACCTAGTGCAG,10500 fluorescence intensity (a.u.)
18,ACCCTGCGTATCTGATTTTGCGGTTCGAGGATGTTTTTTACGGAGTCACCTAGTGCAG,8660 fluorescence intensity (a.u.)
19,ACTCCGCCGCCTTCTGCTTCATGCGCAACTCCAATTCGGGCGGAGTCACCTAGTGCAG,10500 fluorescence intensity (a.u.)
20,GCTGCCTCTGTGCTCTCCGTCCCGGCACCGGCACGACACCCGGAGTCACCTAGTGCAG,9000 fluorescence intensity (a.u.)
21,AGCGGGCTTTGGTGCTTAAGTTCTTTCGGGTTTGTGTTCTCGGAGTCACCTAGTGCAG,11700 fluorescence intensity (a.u.)
22,ATAGCTCATTTGACCATCTTCCATCTATAGCTGTTAGCCACGGAGTCACCTAGTGCAG,13600 fluorescence intensity (a.u.)
23,CAACGTGTCACCTGATCAACACGCCACCTCGCTAACCGTACGGAGTCACCTAGTGCAG,8760 fluorescence intensity (a.u.)
24,TTACATCAATTTCAGAGTAAGTATGGTTGGTTGGTTGGTTCGGAGTCACCTAGTGCAG,13400 fluorescence intensity (a.u.)
25,CTGTCTCGTGTCTGGGCTGGTGCGACCAACTGGTTCAAAACGGAGTCACCTAGTGCAG,8210 fluorescence intensity (a.u.)
26,AAACCACACCATCAAATTCTTGCTCAATTTGTCAAATACTCGGAGTCACCTAGTGCAG,8300 fluorescence intensity (a.u.)
27,ACACCACCTTAGTAGCTTACCGGCACAATAAGCATGCTCTCGGAGTCACCTAGTGCAG,9990 fluorescence intensity (a.u.)

# Copied from the listing (2 entries):
row,Sequence,binding signal
17,GTTACTGATCACACTACTTGTACTTTCCGCAAGTCATGCACGGAGTCACCTAGTGCAG,10500 fluorescence intensity (a.u.)
18,ACCCTGCGTATCTGATTTTGCGGTTCGAGGATGTTTTTTACGGAGTCACCTAGTGCAG,8660 fluorescence intensity (a.u.)

# Next part

row,Sequence,binding signal
1,CCGCCCACCAAAACCCTCGCCGCGGCCTCCGCCGCCGCGGCGGAGTCACCTAGTGCAG,8240 fluorescence intensity (a.u.)
2,TTGCTGCCTCTCTCCCTACTCCTATCGCTGTTCATGTTGTCGGAGTCACCTAGTGCAG,9480 fluorescence intensity (a.u.)
3,CCCTACTCTGTACTTAATCTTCAATAAATTTGTGTCCTTGCGGAGTCACCTAGTGCAG,8390 fluorescence intensity (a.u.)
4,GAGGGGTTTCCGGATTTATGTGTTGAAATTGTTTTTTGTTCGGAGTCACCTAGTGCAG,8810 fluorescence intensity (a.u.)
5,AGCCTGGTGCCGTGATGTGCTGACGATGCTCCATGACGACCGGAGTCACCTAGTGCAG,8220 fluorescence intensity (a.u.)
6,CTGACCCCACAGTGATACTCAGCTTCTATTTGCATTGCCGCGGAGTCACCTAGTGCAG,8290 fluorescence intensity (a.u.)
7,TAATTTCAATCCTAGTTATATTCCTGGACAAGTGCATGTTCGGAGTCACCTAGTGCAG,8710 fluorescence intensity (a.u.)
8,TCGCGCGCGGCACACCTTCACGCTGCACCAATCCGCATCGCGGAGTCACCTAGTGCAG,8210 fluorescence intensity (a.u.)
9,GTGCTAGACTTTCTTTAGAAATTTTGAGGTCTTTTTTATACGGAGTCACCTAGTGCAG,9680 fluorescence intensity (a.u.)
10,GGGACTCATGCAACATATCATTGCCATCGATCGATCTCCGCGGAGTCACCTAGTGCAG,11100 fluorescence intensity (a.u.)
11,CCATCCGTTATATATACTTTACATTACATATACTGCTTGTCGGAGTCACCTAGTGCAG,11100 fluorescence intensity (a.u.)
12,ATTTAGCTCTCTCTCTCTCTCTCACCTGCTCCTACTTACACGGAGTCACCTAGTGCAG,9470 fluorescence intensity (a.u.)
13,GTTGGGAAGGAAAGGGAGGGGTTGGTGCTCTCCTCCTCTTCGGAGTCACCTAGTGCAG,9740 fluorescence intensity (a.u.)
14,CCGGTCCAAGCACAGCAGCTTCTCAACTTCTCCACGTTTTCGGAGTCACCTAGTGCAG,9910 fluorescence intensity (a.u.)
15,GCATGACATAAATATTTTCATATTTGCACAAAATTTTTAACGGAGTCACCTAGTGCAG,8890 fluorescence intensity (a.u.)
16,CACCACGCTCGCTCCATCGATTCCTTGTTCTAGTGTTTCTCGGAGTCACCTAGTGCAG,15000 fluorescence intensity (a.u.)
17,CCGCCTCGCCGACCTCGGACCCCGGCCTCCATCCTCCTCGCGGAGTCACCTAGTGCAG,9450 fluorescence intensity (a.u.)
18,AATCATCACCTCTACTAGCTAGCTATAGCTCTAGTTCTACCGGAGTCACCTAGTGCAG,8910 fluorescence intensity (a.u.)
19,ATTACTGTACCGTGCGTCGATTCGCTTACCTCCTAATACACGGAGTCACCTAGTGCAG,13800 fluorescence intensity (a.u.)
20,ATTTATCTCTCCATGGTTACTTGCAAGTTGCAACATCGCTCGGAGTCACCTAGTGCAG,8960 fluorescence intensity (a.u.)
21,ATCCATGTTGCATTTTATCCTACTGGTACCGTTTCTTTTCCGGAGTCACCTAGTGCAG,11600 fluorescence intensity (a.u.)
22,GCCTCAGGTTCGTTCCACCACGGCGCCGCCGCCGCCGATGCGGAGTCACCTAGTGCAG,8110 fluorescence intensity (a.u.)
23,TCGATTCCTGCCCGTCCGATCCGCCCTCACGGCCTCACCGCGGAGTCACCTAGTGCAG,10600 fluorescence intensity (a.u.)
24,GGCCCCTGTTCCGCGGTGCTTTTCCCCAGCCATCACGAGACGGAGTCACCTAGTGCAG,11600 fluorescence intensity (a.u.)
25,AACAAACCCAGTACACCTATGAGATCTCACCTGCTAACAACGGAGTCACCTAGTGCAG,10300 fluorescence intensity (a.u.)
26,AGTACATAACAATTTCCACTCCAGTTTGAGATATTTTTTACGGAGTCACCTAGTGCAG,8610 fluorescence intensity (a.u.)
27,TGGTTGCTGCAGTCGGGTGGGTGTGTAGTAGACTCTGCGGCGGAGTCACCTAGTGCAG,9260 fluorescence intensity (a.u.)
